Experimental data: patent publication US20200078466A1, “GLYCOPEPTIDE ANTIBIOTIC CONSTRUCTS” (THE UNIVERSITY OF QUEENSLAND, priority 2016, published 2020)
Some entries share one result that the patent states for a list of compounds.

Tested on: native bacterial Kaa target of Lipid II
Test: Ligand displacement assay: Ac-Kaa excess needed to abrogate antibacterial activity
Type: cell-based
Conditions: test compounds at 10-fold MIC; based on vancomycin molecular weight

## CN[C@H](CC(C)C)C(=O)N[C@H]1C(=O)N[C@@H](CC(N)=O)C(=O)N[C@H]2C(=O)N[C@H]3C(=O)N[C@H](C(=O)N[C@H](C(=O)O)c4cc(O)cc(O)c4-c4cc3ccc4O)[C@H](O)c3ccc(c(Cl)c3)Oc3cc2cc(c3O[C@@H]2O[C@H](CO)[C@@H](O)[C@H](O)[C@H]2O[C@H]2C[C@](C)(N)[C@H](O)[C@H](C)O2)Oc2ccc(cc2Cl)[C@H]1O [vancomycin]
  molar excess of Ac-Kaa required to overcome bacterial inhibition: > 2 molar excess
